# These are yes or no findings as the source states them, for the method shown. Binding can be weak; no strength is given. Tags and fused reporters may be left off the sequences shown.
# Biological target: T1, recombinant GST-tagged human loricrin (GST-loricrin) (human) (UniProt P23490)
# T1 sequence: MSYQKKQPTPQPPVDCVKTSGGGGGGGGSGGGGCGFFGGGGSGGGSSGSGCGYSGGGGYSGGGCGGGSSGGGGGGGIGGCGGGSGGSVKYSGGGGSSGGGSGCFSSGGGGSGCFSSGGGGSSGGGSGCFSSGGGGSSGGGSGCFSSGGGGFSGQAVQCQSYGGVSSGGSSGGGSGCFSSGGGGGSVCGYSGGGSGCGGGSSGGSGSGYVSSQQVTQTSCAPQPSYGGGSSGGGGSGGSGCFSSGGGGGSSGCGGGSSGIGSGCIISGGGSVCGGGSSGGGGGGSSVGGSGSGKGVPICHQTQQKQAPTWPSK
# Experiment: bacterial adherence to coated wells (crystal violet); microtiter wells coated with GST-loricrin in 0.1 M NaHCO3 pH 9.6, blocked with 5% BSA; exponential-phase bacteria at OD600 1.0 in PBS, 2 h at 37 °C; absorbance at 570 nm; only the target purified
row,Substance,binding
1,clumping factor B (ClfB) on S. aureus AD08 cells (mutant AD08∆fnbA∆fnbB) (from UniProt Q2FUY2),binds
2,fibronectin binding protein A (FnBPA) on S. aureus AD08 cells (mutant AD08ΔclfBΔfnbB) (from UniProt P14738),no binding
3,fibronectin binding protein B (FnBPB) on S. aureus AD08 cells (mutant AD08∆clfB∆fnbA) (from UniProt A0A0H2XKG3),binds

# Reference: PMC9076634, “Fibronectin binding protein B binds to loricrin and promotes corneocyte adhesion by Staphylococcus aureus” (Nature Communications, 2022)
